No constants are given. Whether binding was seen depends on the method and setting. In cells and extracts the contact can be indirect. Some results given as binding are weak or reduced against the parent protein; the word gives no strength.
B1: XRN2 (protein, UniProt Q9H0D6 1-950)
chain: MGVPAFFRWLSRKYPSIIVNCVEEKPKECNGVKIPVDASKPNPNDVEFDNLYLDMNGIIHPCTHPEDKPAPKNEDEMMVAIFEYIDRLFSIVRPRRLLYMAIDGVAPRAKMNQQRSRRFRASKEGMEAAVEKQRVREEILAKGGFLPPEEIKERFDSNCITPGTEFMDNLAKCLRYYIADRLNNDPGWKNLTVILSDASAPGEGEHKIMDYIRRQRAQPNHDPNTHHCLCGADADLIMLGLATHEPNFTIIREEFKPNKPKPCGLCNQFGHEVKDCEGLPREKKGKHDELADSLPCAEGEFIFLRLNVLREYLERELTMASLPFTFDVERSIDDWVFMCFFVGNDFLPHLPSLEIRENAIDRLVNIYKNVVHKTGGYLTESGYVNLQRVQMIMLAVGEVEDSIFKKRKDDEDSFRRRQKEKRKRMKRDQPAFTPSGILTPHALGSRNSPGSQVASNPRQAAYEMRMQNNSSPSISPNTSFTSDGSPSPLGGIKRKAEDSDSEPEPEDNVRLWEAGWKQRYYKNKFDVDAADEKFRRKVVQSYVEGLCWVLRYYYQGCASWKWYYPFHYAPFASDFEGIADMPSDFEKGTKPFKPLEQLMGVFPAASGNFLPPSWRKLMSDPDSSIIDFYPEDFAIDLNGKKYAWQGVALLPFVDERRLRAALEEVYPDLTPEETRRNSLGGDVLFVGKHHPLHDFILELYQTGSTEPVEVPPELCHGIQGKFSLDEEAILPDQIVCSPVPMLRDLTQNTVVSINFKDPQFAEDYIFKAVMLPGARKPAAVLKPSDWEKSSNGRQWKPQLGFNRDRRPVHLDQAAFRTLGHVMPRGSGTGIYSNAAPPPVTYQGNLYRPLLRGQAQIPKLMSNMRPQDSWRGPPPLFQQQRFDRGVGAEPLLPWNRMLQTQNAAFQPNQYQMLAGPGGYPPRRDDRGGRQGYPREGRKYPLPPPSGRYNWN

By UniProt entry, the sequences of proteins in these tests, tags left out.
UniProt Q9NZI8: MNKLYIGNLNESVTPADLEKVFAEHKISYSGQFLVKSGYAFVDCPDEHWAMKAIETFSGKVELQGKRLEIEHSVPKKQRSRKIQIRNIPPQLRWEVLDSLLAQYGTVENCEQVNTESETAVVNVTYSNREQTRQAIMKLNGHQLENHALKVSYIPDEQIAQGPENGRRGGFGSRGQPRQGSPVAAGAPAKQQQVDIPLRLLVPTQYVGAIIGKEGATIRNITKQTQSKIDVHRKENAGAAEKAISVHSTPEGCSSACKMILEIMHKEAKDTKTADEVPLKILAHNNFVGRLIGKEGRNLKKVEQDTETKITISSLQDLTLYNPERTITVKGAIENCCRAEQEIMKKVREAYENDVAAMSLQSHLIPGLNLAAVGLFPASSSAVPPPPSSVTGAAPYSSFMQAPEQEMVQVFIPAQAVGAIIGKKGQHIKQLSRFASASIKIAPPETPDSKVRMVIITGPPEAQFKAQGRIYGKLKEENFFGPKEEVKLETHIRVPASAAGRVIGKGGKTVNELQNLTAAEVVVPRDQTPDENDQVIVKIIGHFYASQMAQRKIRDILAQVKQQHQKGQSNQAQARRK
UniProt O00425: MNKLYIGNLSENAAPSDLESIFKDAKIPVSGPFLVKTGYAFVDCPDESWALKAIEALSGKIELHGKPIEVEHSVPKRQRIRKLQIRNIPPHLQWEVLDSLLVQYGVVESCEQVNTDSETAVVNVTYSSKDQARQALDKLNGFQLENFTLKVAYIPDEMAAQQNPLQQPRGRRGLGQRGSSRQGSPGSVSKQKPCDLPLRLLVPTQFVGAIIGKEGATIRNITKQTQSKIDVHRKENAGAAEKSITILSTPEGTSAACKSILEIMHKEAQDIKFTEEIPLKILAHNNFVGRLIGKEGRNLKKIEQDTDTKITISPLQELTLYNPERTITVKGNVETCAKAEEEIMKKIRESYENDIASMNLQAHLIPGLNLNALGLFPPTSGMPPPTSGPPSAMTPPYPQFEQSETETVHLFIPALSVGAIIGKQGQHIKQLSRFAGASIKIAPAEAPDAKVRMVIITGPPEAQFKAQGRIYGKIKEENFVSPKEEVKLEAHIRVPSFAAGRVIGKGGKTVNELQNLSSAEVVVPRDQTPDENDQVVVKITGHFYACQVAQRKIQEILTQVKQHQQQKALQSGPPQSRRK
UniProt Q9Y6M1: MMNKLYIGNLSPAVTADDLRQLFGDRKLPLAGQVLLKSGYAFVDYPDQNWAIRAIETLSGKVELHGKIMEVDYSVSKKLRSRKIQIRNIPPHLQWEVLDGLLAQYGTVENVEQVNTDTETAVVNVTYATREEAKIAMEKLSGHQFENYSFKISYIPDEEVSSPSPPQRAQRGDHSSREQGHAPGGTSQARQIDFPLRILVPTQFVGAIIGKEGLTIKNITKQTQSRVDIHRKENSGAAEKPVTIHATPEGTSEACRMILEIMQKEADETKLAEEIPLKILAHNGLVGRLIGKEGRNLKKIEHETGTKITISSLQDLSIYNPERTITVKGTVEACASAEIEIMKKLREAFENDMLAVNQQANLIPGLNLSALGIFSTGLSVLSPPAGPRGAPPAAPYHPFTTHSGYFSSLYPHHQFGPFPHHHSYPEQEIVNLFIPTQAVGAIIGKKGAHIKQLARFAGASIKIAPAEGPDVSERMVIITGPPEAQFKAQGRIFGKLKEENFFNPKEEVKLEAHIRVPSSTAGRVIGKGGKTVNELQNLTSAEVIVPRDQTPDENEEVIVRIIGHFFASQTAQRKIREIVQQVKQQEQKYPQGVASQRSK
UniProt Q15024: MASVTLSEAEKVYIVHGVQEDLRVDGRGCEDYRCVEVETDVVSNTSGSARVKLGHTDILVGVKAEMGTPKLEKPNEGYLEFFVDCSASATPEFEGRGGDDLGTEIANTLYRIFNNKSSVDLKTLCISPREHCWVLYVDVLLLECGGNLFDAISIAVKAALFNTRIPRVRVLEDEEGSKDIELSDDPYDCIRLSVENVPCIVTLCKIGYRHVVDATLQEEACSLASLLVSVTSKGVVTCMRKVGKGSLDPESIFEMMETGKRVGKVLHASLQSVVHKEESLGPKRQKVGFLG
UniProt Q9NQT5: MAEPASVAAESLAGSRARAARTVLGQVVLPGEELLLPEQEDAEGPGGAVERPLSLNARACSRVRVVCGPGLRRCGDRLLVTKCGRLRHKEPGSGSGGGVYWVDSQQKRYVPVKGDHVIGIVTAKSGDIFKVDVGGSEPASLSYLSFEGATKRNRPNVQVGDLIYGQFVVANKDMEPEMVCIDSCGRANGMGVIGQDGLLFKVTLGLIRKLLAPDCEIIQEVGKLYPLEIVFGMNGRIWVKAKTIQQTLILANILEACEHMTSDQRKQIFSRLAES
UniProt Q13868: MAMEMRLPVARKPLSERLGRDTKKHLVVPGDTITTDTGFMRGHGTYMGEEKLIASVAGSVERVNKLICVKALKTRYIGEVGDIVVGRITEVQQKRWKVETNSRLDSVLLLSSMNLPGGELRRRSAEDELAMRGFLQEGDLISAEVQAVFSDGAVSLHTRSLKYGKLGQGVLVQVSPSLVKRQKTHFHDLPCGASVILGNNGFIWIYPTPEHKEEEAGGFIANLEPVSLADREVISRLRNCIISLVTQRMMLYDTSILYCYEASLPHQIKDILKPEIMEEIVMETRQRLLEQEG

Legend:
Experiment in all cases: co-IP; HepG2 lysate (150 mM KCl, 10 mM HEPES pH 7.6, 2 mM EDTA, 0.5% NP-40, 0.5 mM DTT, RNase inhibitor) incubated with antibodies against IGF2BP1, IGF2BP2 or IGF2BP3 for 2 h at 4 °C, Protein A beads, washed four times with NT2 buffer (200 mM NaCl); western blot of the partners; rabbit IgG as negative control
[1] = molecular target: IGF2BP1 (human (endogenous in HepG2)) (UniProt Q9NZI8)
[2] = molecular target: IGF2BP3 (human (endogenous in HepG2)) (UniProt O00425)
[3] = molecular target: IGF2BP2 (human (endogenous in HepG2)) (UniProt Q9Y6M1)

| Molecule | binding [1] | binding [2] | binding [3] |
| --- | --- | --- | --- |
| EXOSC7 (from UniProt Q15024 1-291) | binds | binds |  |
| EXOSC3 (from UniProt Q9NQT5 1-275) | binds | binds |  |
| EXOSC2 (from UniProt Q13868 1-293) | binds | binds | binds |
| B1 | binds | binds | binds |

Reference: PMC11358264
